For at least one compound, name, drawing or mass did not settle the structure.
Tests used:
[1] = tested on: clones of T-24, HT-1376 and HT-1197 bladder cancer cell lines; assay: Cell death by propidium iodide dye exclusion (flow cytometry) in Gem-sensitive and Gem-resistant clones; assay type: cell-based; conditions: 2 sensitive and 2 resistant clones per clone set; Gem 30 nM 2 days (T-24), 80 nM 4 days (HT-1376), 120 nM 5 days (HT-1197); G418 250 or 70 μg/ml, cycloheximide 500 ng/ml, rapamycin 10 nM
Method: Cell culture, cell death assays and growth assays—The T-24 and HT-1376 cell lines were purchased from the German Collection of Microorganisms and Cell Cultures and were cultivated in DMEM, high glucose, containing 10% Fetal Bovine Serum (FBS) or Minimum Essential Medium with 10% FBS and non-essential amino acids, respectively. HT-1197 was a gift from Bioxell (Milano) and was cultured like HT-1376. […] HT-1376 and its clones were incubated for 4 days and HT-1197 for 5 days with Gem including one medium change after 2 days. The percentage of dead cells that took up propidium iodide was determined using flow cytometry. […] Staining with Annexin-V-FITC was performed according to the manufacturer's description (Roche). To assess the cell number by staining with 3-(4,5-Dimethylthiazol-2-yl)-2,5-diphenyltetrazolium bromide (MTT), MTT was added at 500 μg/ml. After 2 hours, precipitate was solubilized by addition of 0.04N HCl/Isopropanol. Absorbance was read at 570 nm with reference at 650 nm.
Generation of Gemcitabine-resistant clones and stable cell lines—The T-24 cell line was incubated with 120 nM Gem for 3 days, HT-1376 with 160 nM Gem and HT-1197 with 1.6 μM for 7 days. […] Subsequently, the medium was changed for normal growth medium without Gem and the cells were grown for additional 1 to 3 weeks. […]
FIG. 5. […] Cell death was measured by propidium iodide dye exclusion using flow cytometry. […]

[2] = tested on: T-24, HT-1376 and HT-1197 cell lines and clones; assay: Metabolic labelling of protein synthesis with 35S-methionine/cysteine; assay type: cell-based; conditions: parental cell lines; Gem 30 nM 1 day (T-24), 80 nM 3 days (HT-1376), 120 nM 3 days (HT-1197); G418 250/80/70 μg/ml, CHX 500 ng/ml, rapamycin 10 nM
Method: Cells were labelled for 1.5 hours in growth medium without methionine and cysteine supplemented with 30 μCi/ml [^35S]-methionine/cysteine. Subsequently, the proteins were precipitated with TCA as described previously (Zhang et al., 2004). The incorporated radioactivity was expressed as counts/μg protein.
FIG. 3. Protein synthesis in the presence of Gem is higher in the resistant clones. […] Medium was removed and replaced for 1.5 h by medium containing 30 μCi/ml ^35S-methionine/cysteine (pulse). […] The reduction in radioactively labelled proteins due to protein degradation during the chase was significant as indicated. (B) The three parental cell lines and HT-1197 and T-24 stably expressing Bcl-2 were incubated with Gem as in (A) in the presence of 40 μM (T-24, HT-1376) or 80 μM z-VAD-fmk (HT-1197) or vehicle (DMSO). Subsequently, the cells were labelled as before. (C) Two sensitive and two resistant clones of each clone set were incubated and labelled as in (A). […] Results are from two independent experiments in duplicate. Error bars depict S.E.M. **P<0.01.
FIG. 5. Protein synthesis inhibitors diminish Gem resistance. (A) Two sensitive and two resistant clones of each clone set were incubated with Gem (T-24: 30 nM, 2 days; HT-1376: 80 nM, 4 days; HT-1197: 120 nM, 5 days). […] Cell death was measured by propidium iodide dye exclusion using flow cytometry. […]

## CO[C@H]1C[C@@H]2CC[C@@H](C)[C@@](O)(O2)C(=O)C(=O)N2CCCC[C@H]2C(=O)O[C@H]([C@H](C)C[C@@H]2CC[C@@H](O)[C@H](OC)C2)CC(=O)[C@H](C)/C=C(\C)[C@@H](O)[C@@H](OC)C(=O)[C@H](C)C[C@H](C)/C=C/C=C/C=C/1C [rapamycin]
[1]
  Gem-induced cell death on concomitant treatment with a protein synthesis inhibitor: inhibited Gem-induced cell death
[2]
  Protein synthesis in the presence of Gem plus a protein synthesis inhibitor: did not alter the downregulation of protein synthesis
